Experimental findings from paper PMC2691602 are described below.

Chains of the proteins cited; added tags and fusions are not shown.
UniProt Q15796: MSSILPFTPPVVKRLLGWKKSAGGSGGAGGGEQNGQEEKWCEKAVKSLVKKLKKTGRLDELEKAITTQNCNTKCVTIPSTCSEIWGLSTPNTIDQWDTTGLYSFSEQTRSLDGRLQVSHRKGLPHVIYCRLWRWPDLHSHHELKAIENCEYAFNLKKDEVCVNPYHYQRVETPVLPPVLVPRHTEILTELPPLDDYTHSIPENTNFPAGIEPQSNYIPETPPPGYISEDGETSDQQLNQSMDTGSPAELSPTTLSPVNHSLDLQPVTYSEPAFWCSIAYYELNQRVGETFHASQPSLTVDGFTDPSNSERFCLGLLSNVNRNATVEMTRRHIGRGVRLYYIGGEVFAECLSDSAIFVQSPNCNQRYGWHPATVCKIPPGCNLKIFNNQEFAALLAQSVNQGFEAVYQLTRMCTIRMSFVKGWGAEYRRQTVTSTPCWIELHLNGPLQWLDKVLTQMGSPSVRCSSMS

In this assay the target is T1, human tRNase Z^L (long form of tRNA 3′ processing endoribonuclease), endogenous (human (endogenous in 293 cells)) (UniProt Q9BQ52).
T1 sequence: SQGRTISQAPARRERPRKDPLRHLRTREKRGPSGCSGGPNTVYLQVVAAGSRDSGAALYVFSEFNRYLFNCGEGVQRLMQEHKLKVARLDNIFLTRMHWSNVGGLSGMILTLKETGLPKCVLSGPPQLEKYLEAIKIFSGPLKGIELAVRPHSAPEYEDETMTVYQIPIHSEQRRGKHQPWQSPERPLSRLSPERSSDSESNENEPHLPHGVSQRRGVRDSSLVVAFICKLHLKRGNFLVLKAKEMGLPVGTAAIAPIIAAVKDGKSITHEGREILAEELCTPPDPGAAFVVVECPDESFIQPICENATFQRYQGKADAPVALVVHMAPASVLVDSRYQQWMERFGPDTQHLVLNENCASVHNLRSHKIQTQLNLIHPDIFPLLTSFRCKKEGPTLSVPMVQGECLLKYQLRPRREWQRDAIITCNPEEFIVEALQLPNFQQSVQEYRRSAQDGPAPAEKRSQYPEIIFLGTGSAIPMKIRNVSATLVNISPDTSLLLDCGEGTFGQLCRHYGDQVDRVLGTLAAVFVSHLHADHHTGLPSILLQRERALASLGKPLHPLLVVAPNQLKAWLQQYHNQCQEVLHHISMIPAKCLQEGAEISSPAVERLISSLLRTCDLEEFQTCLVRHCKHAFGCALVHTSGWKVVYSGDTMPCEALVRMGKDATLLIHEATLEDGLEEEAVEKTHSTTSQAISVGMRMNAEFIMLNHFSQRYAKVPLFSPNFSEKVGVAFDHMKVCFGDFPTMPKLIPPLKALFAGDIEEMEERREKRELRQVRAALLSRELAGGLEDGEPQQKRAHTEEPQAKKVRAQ
The experiment in a line: co-IP; endogenous human tRNase Z^L; no figure and no details given; method implied by the cited co-immunoprecipitation that it is set against.

No constants are given. Whether binding was seen depends on the method and setting. In cells and extracts the contact can be indirect.

In the case of Smad2 (from UniProt Q15796 1-467), the binding result is on record as “no binding”.
